## Primary screen of a compound library

Sequences of proteins named here, by UniProt entry; tags and fusion partners are left off. Residues count along the entry.
UniProt Q8IDJ8, 1-583: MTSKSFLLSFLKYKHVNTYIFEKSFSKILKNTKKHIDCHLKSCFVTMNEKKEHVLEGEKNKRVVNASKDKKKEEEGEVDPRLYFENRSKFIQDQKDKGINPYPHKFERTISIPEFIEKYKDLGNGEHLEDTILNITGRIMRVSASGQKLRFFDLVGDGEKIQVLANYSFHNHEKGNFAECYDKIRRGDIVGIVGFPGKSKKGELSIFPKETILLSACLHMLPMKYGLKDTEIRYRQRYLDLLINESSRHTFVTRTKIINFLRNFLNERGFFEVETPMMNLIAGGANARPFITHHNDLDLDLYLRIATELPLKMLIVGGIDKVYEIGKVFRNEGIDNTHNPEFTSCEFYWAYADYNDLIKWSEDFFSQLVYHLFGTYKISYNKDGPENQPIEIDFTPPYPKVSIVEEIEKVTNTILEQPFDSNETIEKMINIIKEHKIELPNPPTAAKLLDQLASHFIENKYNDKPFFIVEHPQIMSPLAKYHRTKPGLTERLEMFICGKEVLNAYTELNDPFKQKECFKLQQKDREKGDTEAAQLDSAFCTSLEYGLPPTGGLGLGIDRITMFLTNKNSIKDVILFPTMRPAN
UniProt A4I591, 1-473: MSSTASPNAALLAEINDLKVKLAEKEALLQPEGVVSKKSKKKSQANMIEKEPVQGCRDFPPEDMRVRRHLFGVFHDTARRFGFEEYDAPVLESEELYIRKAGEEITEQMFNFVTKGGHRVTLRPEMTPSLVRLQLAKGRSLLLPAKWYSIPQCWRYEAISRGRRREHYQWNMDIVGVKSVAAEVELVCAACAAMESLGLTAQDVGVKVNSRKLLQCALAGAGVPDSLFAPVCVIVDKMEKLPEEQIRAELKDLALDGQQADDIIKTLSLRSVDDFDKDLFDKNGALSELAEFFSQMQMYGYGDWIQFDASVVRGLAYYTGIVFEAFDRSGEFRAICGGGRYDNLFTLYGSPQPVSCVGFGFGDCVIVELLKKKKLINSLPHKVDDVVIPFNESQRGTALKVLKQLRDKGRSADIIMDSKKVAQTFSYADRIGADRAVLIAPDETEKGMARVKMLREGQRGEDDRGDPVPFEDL

From ChEMBL document CHEMBL3988442, “University of Dundee, Small-Polar-MMV Screening Library” (2021).

Leishmania in macrophages: 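Cell assay of Leishmania donovani living inside macrophages; the read-out is not stated. Concentration: 30 µM. The record gives no direction; compounds that gave an IC50 in retests scored well above the rest, so higher reads as stronger inhibition. Size under these conditions: about 69,000 compounds, about 1,000 of them at 50% or above in at least one test.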
PfKRS1: 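Lysine-tRNA ligase, Plasmodium falciparum 3D7 (UniProt Q8IDJ8). Enzyme assay of the cytosolic lysyl-tRNA synthetase in 384-well plates, read by luminescence. Concentration: 30 µM. Direction is inferred from only a few compounds that gave an IC50; most scored high, so higher reads as stronger inhibition. Size under these conditions: about 69,000 compounds, about 49 of them at 50% or above in at least one test.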
LiHisRS: 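Enzyme assay of histidyl-tRNA synthetase; the read-out is not stated. Target: Histidine-tRNA ligase, Leishmania infantum (UniProt A4I591). Concentration: 30 µM. The record gives no direction; compounds that gave an IC50 in retests scored well above the rest, so higher reads as stronger inhibition. The assay is labelled LdHisRS but filed under L. infantum. About 69,000 compounds were tested under these conditions; 0.6% (about 410) showed 50% or more at least once.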

Values are the deposited “Percent Effect”, in %.
How 0% and 100% were set is not recorded. Most values in the screen are low, and negative values occur.
This is an unselected part of the compounds tested.
Two or more numbers in one place are separate tests of the same structure; such repeats can differ widely.

{"structure": "O=C(NCCc1nccs1)C(c1ccccc1)n1cnnn1", "stereo": "centres unmarked", "Leishmania in macrophages": 9.648, "PfKRS1": -1.185, "LiHisRS": 12.09}
{"structure": "Cc1noc(CNC(=O)NCC2(C)CCCc3ccccc32)n1", "stereo": "centres unmarked", "Leishmania in macrophages": 8.647, "PfKRS1": -0.5684, "LiHisRS": 4.167}
{"structure": "CC(=O)N1CCC(C(=O)N(C)[C@@H]2CCC[C@@H](N3CCCC3)[C@@H]2O)CC1", "Leishmania in macrophages": 7.69, "PfKRS1": -0.643, "LiHisRS": 30.56}
{"structure": "CCc1ccccc1Nc1noc2c1CN(C(=O)CCOC)CC2", "Leishmania in macrophages": "12.43 and 1.05", "PfKRS1": 1.682, "LiHisRS": 9.474}
{"structure": "CC(C)=CCN1C[C@H]2CC[C@@H]1CN(Cc1coc(C)n1)C2", "PfKRS1": 3.857, "LiHisRS": 5.333}
{"structure": "Cc1cc(Cl)ccc1C(=O)N1C[C@H](C2CC2)[C@@H](N)C1", "Leishmania in macrophages": 21.05, "PfKRS1": 1.069, "LiHisRS": -2.198}
{"structure": "O=C(O)C(F)(F)F.[H][C@@]12C[C@H](C(=O)Nc3ccccc3)[C@@]([H])(CN(CC)C1)O2", "Leishmania in macrophages": 26.83}
{"structure": "O=C(O)C(F)(F)F.O=C(O)C(F)(F)F.[H][C@@]12OCCN(Cc3ccc(OC)cc3)[C@@]1([H])CC[C@H]2OCc1ccncc1", "Leishmania in macrophages": 60.6}
{"structure": "O=C(CCCSc1ccc(NC(=O)C2CC2)nn1)NCC1CCCO1", "stereo": "centres unmarked", "Leishmania in macrophages": -48.21, "PfKRS1": 4.498, "LiHisRS": 18.18}
{"structure": "CCN(Cc1cc(=O)n2cc(Br)ccc2n1)C1CC1", "Leishmania in macrophages": 27.7, "PfKRS1": 4.935, "LiHisRS": 11.67}
{"structure": "CCCn1c(C)c(CC(=O)N[C@H](C)C(=O)OC)c2c1CC(C)(C)CC2=O", "Leishmania in macrophages": -3.987, "PfKRS1": 0, "LiHisRS": 10.59}
{"structure": "Cn1ncc2c(NCC3CCCN3c3cccnn3)ncnc21", "stereo": "centres unmarked", "Leishmania in macrophages": 11.57, "PfKRS1": -2.038, "LiHisRS": 9.565}
{"structure": "Cc1cnc(CCN(C)C(=O)c2cccc(C)c2O)s1", "Leishmania in macrophages": 15.89, "PfKRS1": 1.208, "LiHisRS": 6.329}
{"structure": "Cc1ncsc1CNC(=O)N1CCN(Cc2ccccc2)CC1C", "stereo": "centres unmarked", "Leishmania in macrophages": 31.83, "PfKRS1": 2.036, "LiHisRS": 9.091}
{"structure": "CCc1cccc(C)c1NC(=O)NCCCN(CC)S(C)(=O)=O", "Leishmania in macrophages": 13.88, "PfKRS1": 0.99, "LiHisRS": 1.667}
{"structure": "CN1CC=C(c2noc(CCC(=O)N3CCCC3)n2)CC1", "Leishmania in macrophages": "22.35 and 7.132", "PfKRS1": 2.762, "LiHisRS": -36.84}
{"structure": "O=c1c(NCc2ccncc2)c(NCC(O)CN2CCOCC2)c1=O", "stereo": "centres unmarked", "Leishmania in macrophages": 15.46, "PfKRS1": 6.401, "LiHisRS": 10.53}
{"structure": "Cc1nc(C)c(CCNc2ccc(S(N)(=O)=O)cc2C#N)s1", "Leishmania in macrophages": 28.29, "PfKRS1": -1.673, "LiHisRS": 15.79}
{"structure": "NC(=O)C1CN(C(=O)Cc2cccnc2)CCN(C2CCOCC2)C1", "stereo": "centres unmarked", "Leishmania in macrophages": "14.13 and 7.85", "PfKRS1": 5.045, "LiHisRS": 16.49}
{"structure": "O=C([C@@H]1CSCN1)N1CCC2(CC1)CNCc1ccccc12", "PfKRS1": 6.937, "LiHisRS": 13.79}
{"structure": "CC(C)N1CCOC[C@H]1c1nc(-c2ccncc2)c[nH]1", "Leishmania in macrophages": 20.42, "PfKRS1": 4.161, "LiHisRS": 18.92}
{"structure": "CN1CCCC1CCn1ccnc1-c1ccc2ccccc2n1", "stereo": "centres unmarked", "Leishmania in macrophages": 27.88, "PfKRS1": 1.49, "LiHisRS": 30.67}
{"structure": "NC(=O)C1CN(C(=O)NCC2(c3ccc(F)cc3)CCC2)CCO1", "stereo": "centres unmarked", "Leishmania in macrophages": 0.5869, "PfKRS1": 1.22, "LiHisRS": 1.587}
{"structure": "CC(C)OCc1ccc(CNc2cncc(-n3cccn3)n2)cc1", "Leishmania in macrophages": 38.46, "PfKRS1": 2.116, "LiHisRS": 15.38}
{"structure": "[H][C@]12CC[C@]([H])(CN(S(=O)(=O)N(C)CC)C1)N(Cc1cscn1)C2=O", "Leishmania in macrophages": -11.45}
{"structure": "O=C(CC1NC(N2CCc3ccccc3C2)=NC1=O)Nc1ccccc1", "stereo": "centres unmarked", "Leishmania in macrophages": 4.892, "PfKRS1": 1.113, "LiHisRS": 6.25}
{"structure": "COc1ccccc1-n1c(C)cc(CNC(=O)NC(C)C)c1C", "Leishmania in macrophages": "15.95 and 5.297", "PfKRS1": -2.032, "LiHisRS": 18.42}
{"structure": "Cc1noc(C)c1CN1CCC(c2nnc(Cn3cccn3)n2C)CC1", "Leishmania in macrophages": 14.09, "PfKRS1": 5.218, "LiHisRS": 13.58}

For reference, 2 entries once more:

structure	Leishmania in macrophages	PfKRS1	LiHisRS
CCc1ccccc1Nc1noc2c1CN(C(=O)CCOC)CC2	12.43 and 1.05	1.682	9.474
COc1ccccc1-n1c(C)cc(CNC(=O)NC(C)C)c1C	15.95 and 5.297	-2.032	18.42